Experimental data taken from article PMC12135372.

Chains of the proteins cited; added tags and fusions are not shown. A line that says so, or that is headed by a name, gives the form on record, which may keep a tag or linker.
Dr-tRNA-LC-FL (DDX1, RTCB, FAM98B, CGI99, ASW) (Danio rerio), one chain, as listed by the source, chain 2 of 4: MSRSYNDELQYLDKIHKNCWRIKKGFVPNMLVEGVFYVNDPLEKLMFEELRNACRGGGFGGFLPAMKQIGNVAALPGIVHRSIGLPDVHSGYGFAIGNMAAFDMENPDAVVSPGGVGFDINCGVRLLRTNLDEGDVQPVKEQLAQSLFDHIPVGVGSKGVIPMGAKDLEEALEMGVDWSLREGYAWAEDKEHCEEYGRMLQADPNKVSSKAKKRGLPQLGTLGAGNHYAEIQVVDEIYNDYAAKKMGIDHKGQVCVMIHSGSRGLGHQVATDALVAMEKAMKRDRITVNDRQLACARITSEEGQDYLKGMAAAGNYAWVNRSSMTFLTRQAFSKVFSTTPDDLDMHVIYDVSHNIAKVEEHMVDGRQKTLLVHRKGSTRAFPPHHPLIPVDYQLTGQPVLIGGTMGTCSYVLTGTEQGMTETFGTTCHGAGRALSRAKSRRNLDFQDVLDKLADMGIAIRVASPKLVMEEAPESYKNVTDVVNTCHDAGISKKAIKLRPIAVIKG
Dr-tRNA-LC-FL (DDX1, RTCB, FAM98B, CGI99, ASW) (Danio rerio), one chain, as listed by the source, chain 4 of 4: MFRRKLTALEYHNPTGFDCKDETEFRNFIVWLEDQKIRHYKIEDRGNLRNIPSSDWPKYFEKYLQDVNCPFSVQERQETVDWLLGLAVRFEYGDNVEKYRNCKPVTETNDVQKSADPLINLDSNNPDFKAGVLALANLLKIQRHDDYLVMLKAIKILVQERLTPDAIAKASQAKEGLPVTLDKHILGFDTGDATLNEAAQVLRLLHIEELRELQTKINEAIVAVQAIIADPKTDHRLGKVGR
Dr-tRNA-LC-TR (DDX1 C-term, RTCB, FAM98B, CGI99, ASW N-term) (Danio rerio), one chain, as listed by the source, chain 1 of 4: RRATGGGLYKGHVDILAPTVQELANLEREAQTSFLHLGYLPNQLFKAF
Dr-tRNA-LC-FL (DDX1, RTCB, FAM98B, CGI99, ASW) (Danio rerio), one chain, as listed by the source, chain 1 of 4: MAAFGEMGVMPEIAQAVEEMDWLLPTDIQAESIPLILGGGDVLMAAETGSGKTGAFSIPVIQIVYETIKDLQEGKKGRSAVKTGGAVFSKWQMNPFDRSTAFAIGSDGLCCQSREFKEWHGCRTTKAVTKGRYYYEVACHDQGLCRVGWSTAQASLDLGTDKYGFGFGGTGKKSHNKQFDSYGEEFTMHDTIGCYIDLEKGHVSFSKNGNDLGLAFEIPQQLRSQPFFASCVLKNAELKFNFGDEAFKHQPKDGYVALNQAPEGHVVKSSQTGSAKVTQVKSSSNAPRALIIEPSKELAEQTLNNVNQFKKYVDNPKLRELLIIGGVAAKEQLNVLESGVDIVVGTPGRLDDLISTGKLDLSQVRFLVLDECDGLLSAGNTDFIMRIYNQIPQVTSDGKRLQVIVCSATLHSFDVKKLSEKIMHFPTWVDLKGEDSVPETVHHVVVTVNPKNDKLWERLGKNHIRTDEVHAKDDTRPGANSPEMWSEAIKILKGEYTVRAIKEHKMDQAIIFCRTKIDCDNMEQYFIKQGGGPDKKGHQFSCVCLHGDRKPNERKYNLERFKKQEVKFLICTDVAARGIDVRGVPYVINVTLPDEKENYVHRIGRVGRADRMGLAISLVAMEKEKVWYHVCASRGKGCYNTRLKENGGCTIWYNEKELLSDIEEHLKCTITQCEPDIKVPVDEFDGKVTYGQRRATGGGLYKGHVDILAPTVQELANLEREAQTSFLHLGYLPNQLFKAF
Dr-tRNA-LC-FL (DDX1, RTCB, FAM98B, CGI99, ASW) (Danio rerio), one chain, as listed by the source, chain 3 of 4: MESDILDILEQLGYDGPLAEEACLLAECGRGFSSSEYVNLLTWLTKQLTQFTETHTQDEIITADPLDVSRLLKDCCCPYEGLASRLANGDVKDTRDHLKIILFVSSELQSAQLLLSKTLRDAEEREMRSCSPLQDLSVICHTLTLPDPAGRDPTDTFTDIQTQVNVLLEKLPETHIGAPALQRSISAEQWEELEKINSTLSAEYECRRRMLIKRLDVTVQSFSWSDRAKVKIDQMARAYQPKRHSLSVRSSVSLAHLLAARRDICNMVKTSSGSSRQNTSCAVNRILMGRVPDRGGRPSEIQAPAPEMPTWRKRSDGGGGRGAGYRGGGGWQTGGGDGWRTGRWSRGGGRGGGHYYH

Legend:
[1] = system: Dr-tRNA-LC-FL (DDX1, RTCB, FAM98B, CGI99, ASW) (Danio rerio); experiment: MST; conditions: no GTP, no Mn2+ (buffer A), almost identical binding, Kd only in figure; MST: 25 mM Hepes pH 7.5, 150 mM NaCl, 1 mM DTT, with or without 2 mM GTP and 2 mM MnCl2, 20 nM Cy5-tRNA, temperature not stated; recombinant protein; protein details: His6-MBP on DDX1, removed by TEV; label: Cy5
[2] = system: Dr-tRNA-LC-TR (DDX1 C-term, RTCB, FAM98B, CGI99, ASW N-term) (Danio rerio); experiment: MST; conditions: no GTP, no Mn2+ (buffer A), almost identical binding, Kd only in figure; MST: 25 mM Hepes pH 7.5, 150 mM NaCl, 1 mM DTT, with or without 2 mM GTP and 2 mM MnCl2, 20 nM Cy5-tRNA, temperature not stated; recombinant protein; protein details: His6-RTCB; label: Cy5

Does “GGCUCCAGUGGCGCAAUCGGUUAGCGCGCGGUACUUAUAAUGCCGAGGUUGUGAGUUCGAGCCUCACCUGGAGCACCA [tRNAIle]” bind [1]?
Result: binds

Does “GGCUCCAGUGGCGCAAUCGGUUAGCGCGCGGUACUUAUAAUGCCGAGGUUGUGAGUUCGAGCCUCACCUGGAGCACCA [tRNAIle]” bind [2]?
Result: binds

For at least one entry, the source does not settle the construct or the ends of the probe. At least one verdict rests on a figure or table, not on a statement of the authors.
